# Source: PubChem BioAssay AID602196 (INSERM, 2012)
# Assay: 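Knock-downs that protect lung cancer cells from cisplatin or sensitise them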
# Cells: human A549 lung cancer cells
# Knock-down reagent: siRNA pair against human genes
# Time to read-out: 48 h transfection before cisplatin; time from cisplatin to read-out not stated
# Conditions: cisplatin at a dose killing half of control-siRNA cells; exact dose and duration not given
# Measurement: 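Cisplatin cell death as a shift from the 50% death seen with control siRNA; siRNAs toxic or growth-blocking alone scored 0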
# Direction: two-siRNA summed score (-2 to +2): higher = both siRNAs protect from cisplatin killing; -2 means both sensitise; mean protection from cisplatin (shift in death) and protection from cisplatin (shift in death), siRNA C and protection from cisplatin (shift in death), siRNA D: higher = protection from cisplatin killing
# Rule for the call: 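siRNAs harmful alone (LDH or WST-1) get 0; others get +1 for less and -1 for more cisplatin killing; genes are active when the two siRNAs give the same sign, summing to ±2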
# Calls: active = both siRNAs shift cisplatin killing the same way; inactive = no consistent shift, or siRNA harmful alone
# This is a random part of about 23,000 reagents. Of all reagents, 455 (2%) are marked active. 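Active includes both protection and sensitisation; some change values fall well beyond the stated -50 to +50 range.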 Entries without a mark were called inactive. Reagent sequences are not shown. Not given: the amount of reagent.
target gene,two-siRNA summed score (-2 to +2),mean protection from cisplatin (shift in death) (%),"protection from cisplatin (shift in death), siRNA C (%)","protection from cisplatin (shift in death), siRNA D (%)"
STRN4 (striatin 4),0,-2.8,-11.2,5.5
ST7L (suppression of tumorigenicity 7 like),0,6.5,0.8,12.3
ARG1 (arginase 1),0,7.8,-2.9,18.6
DTX1 (deltex E3 ubiquitin ligase 1),0,-5.7,-16.4,5
NDUFA1 (NADH:ubiquinone oxidoreductase subunit A1),0,-9.7,-5.3,-14.2
LOC442020,1,17.3,26.6,8
PICK1 (protein interacting with PRKCA 1),1,14,25.6,2.4
"DMWD (DM1 locus, WD repeat containing)",0,2.1,12,-7.8
NRK (Nik related kinase),1,6,-5.8,17.8
NFYC (nuclear transcription factor Y subunit gamma),1,16.6,35.5,-2.2
PRDX2 (peroxiredoxin 2),-1,-7.2,-11.9,-2.5
NES (nestin),0,5.1,-4.2,14.3
TFIP11 (tuftelin interacting protein 11),0,8.7,0.7,16.7
RETN (resistin),-1,-14.8,-3.5,-26.2
ESRRA (estrogen related receptor alpha),0,5.3,7,3.5

Only “mean protection from cisplatin (shift in death) (%)” (2 entries from above):
ST7L (suppression of tumorigenicity 7 like)	6.5
ARG1 (arginase 1)	7.8

More reagents follow.
target gene,two-siRNA summed score (-2 to +2),mean protection from cisplatin (shift in death) (%),"protection from cisplatin (shift in death), siRNA C (%)","protection from cisplatin (shift in death), siRNA D (%)"
LOC389059,0,4.1,1.4,6.8
HDAC11 (histone deacetylase 11),0,11.6,3.3,19.8
PSG6 (pregnancy specific beta-1-glycoprotein 6),0,10.5,0.1,20.8
PDE8B (phosphodiesterase 8B),-1,-7.4,-18.4,3.6
LOC387742,-1,11.5,31.5,-8.5
TNFAIP1 (TNF alpha induced protein 1),0,12.1,20.5,3.7
MAFK (MAF bZIP transcription factor K),0,1.6,13.5,-10.3
LOC441827,0,0.2,-2.4,2.8
